# Test results as given in paper PMC12040169 (PLOS Biology, 2025).
# The list shows a part of the results.
# Test system: T1, CTL2-GFP (C. trachomatis L2/434/Bu, GFP-expressing)
# T1 construct: L2/434/Bu, GFP-expressing
# Parameters: species or system HeLa; Intracellular C. trachomatis growth in HeLa cells, bulk GFP fluorescence relative to DMSO
# Conditions: bulk GFP, single well; 28.5 h, 10 µM; inhibitor
row,SMILES,% of control remaining
1,O=C(Nc1ccc(OC(F)(F)F)cc1)c1cnc(-c2ccc(Cl)cc2)c(-c2ccc(O)cc2)c1 [CBK037485],138.167%
2,COCCOc1nccnc1N1CCNCC1 [CBK001903G],124.066%
3,Cc1nccn1CCN(C)C(=O)c1ccc2c(c1)ncn2C [CBK281993],100.535%
4,NS(=O)(=O)c1ccc(NC(=O)C2CCCN(S(=O)(=O)c3ccc(Cl)cc3)C2)cc1 (stereo not drawn) [CBK266813],151.785%
5,O=C(Cc1csc(-c2ccc(Cl)cc2)n1)Nc1ccccn1 [CBK107364],128.017%
6,CC(=O)Nc1ccc(Nc2cc(C)nc(-n3nc(C)cc3C)n2)cc1 [CBK287746],75.4017%
7,Cc1ccc(S(=O)(=O)Nc2ccc(Nc3cc(-c4ccc(CNC(=O)OC(C)(C)C)cc4)ncn3)cc2)cc1 [CBK090967],178.916%
8,COc1ccc(NC(=O)Nc2nn(Cc3ccc(Cl)cc3Cl)cc2Br)cc1OC [CBK266930],140.308%
9,O=C(c1ccccc1)N1C[C@@H](c2ccsc2)[C@@H]2CN(Cc3cccc(Cl)c3)CC[C@@H]21 [CBK285603],94.9125%
10,COc1cccc2cc(C(=O)N3CCN(CCO)CC3)c(=O)oc12 [CBK293932],176.594%
11,CN1CCN(C(=O)CN(Cc2ccccc2)S(C)(=O)=O)CC1 [CBK265745],99.4835%
12,CCc1c(C)nc2c(C(=O)N3CCOCC3)cnn2c1C [CBK162134],99.9437%
13,CC1(C)[C@H]2CC[C@]1(C)[C@@H](OCCNc1ccccc1)C2 [CBK021967],116.044%
14,Nn1c(COc2ccccc2)nnc1SCC(=O)c1ccc2c(c1)CCCC2 [CBK268466],85.3109%
15,Nc1nc2c(ccn2[C@@H]2O[C@H](CO)[C@H](O)C2O)c(=O)[nH]1 (stereo partly drawn) [CBK201190],146.553%
16,O=[N+]([O-])c1ccc(N2CCN(S(=O)(=O)c3ccc4ccccc4c3)CC2)cc1NCc1ccco1 [CBK264417],123.54%
17,Cc1cc(C)nc(N2CCC(CC(=O)N3CCCCC3CN3CCCC3)CC2)n1 (stereo not drawn) [CBK286254],137.811%
18,COc1ccc(S(=O)(=O)N2CCCCC2)cc1NC(=O)c1ccc(-c2nnn[nH]2)cc1 [CBK297128],154.844%
19,Cc1cc(OC(F)(F)F)ccc1NS(=O)(=O)c1ccc(-c2ccon2)s1 [CBK062361],129.72%
20,CC[C@H]1CN(C(=O)Nc2cccc(OC)c2)CC[C@H]1CC(=O)O [CBK288778],131.384%
21,O=C(O)C(c1c[nH]c2ccc(OCc3ccccc3)cc12)N1CCCC1 (stereo not drawn) [CBK286686],133.849%
22,Cc1c(C(=O)N2CCCC(c3nc(C)n4ccsc34)C2)cnn1C (stereo not drawn) [CBK284593],138.152%
23,CC(C)(C)c1ccc(-c2cnc3nc(N)ccc3c2)cc1 [CBK061888],104.483%
24,Cc1nn(C)c2ncc(S(=O)(=O)NC(C)c3ccc(F)cc3)cc12 (stereo not drawn) [CBK305793],113.415%
25,CC(CC(=O)O)CC(=O)Nc1cccc(C(=O)O)c1 (stereo not drawn) [CBK265651],103.791%
26,CCOc1cc(C)c(Cl)cc1S(=O)(=O)NCc1ccncc1 [CBK269954],115.658%

# Individual results from above:
# % of control remaining, `Cc1c(C(=O)N2CCCC(c3nc(C)n4ccsc34)C2)cnn1C` (stereo not drawn) [CBK284593] reads 138.152%
# % of control remaining, `CCc1c(C)nc2c(C(=O)N3CCOCC3)cnn2c1C` [CBK162134] reads 99.9437%
# % of control remaining, `Nc1nc2c(ccn2[C@@H]2O[C@H](CO)[C@H](O)C2O)c(=O)[nH]1` (stereo partly drawn) [CBK201190] reads 146.553%
# % of control remaining, `CC(=O)Nc1ccc(Nc2cc(C)nc(-n3nc(C)cc3C)n2)cc1` [CBK287746] reads 75.4017%

# (listing goes on)

row,SMILES,% of control remaining
1,CCc1ccc(N(CC(=O)NCc2ccccn2)S(C)(=O)=O)cc1 [CBK265322],100%
2,Cc1cnn(C)c1CN1CCNC(=O)C1c1ccccc1C(F)(F)F (stereo not drawn) [CBK304260],130.126%
3,c1coc(-c2cn3ccnc3c(Nc3ccc4[nH]ccc4c3)n2)c1 [CBK037361],173.83%
4,Cc1cc(-c2ccc(=O)n(C3CCN(C(=O)C4CC4)CC3)n2)c(C)o1 [CBK284462],134.061%
5,CC1CCN(Cc2ccc(-c3nnn(CC(=O)NCc4ccc(Cl)cc4Cl)n3)cc2)CC1 [CBK144180C],100.711%
6,O=C(Nc1ccc2n(c1=O)C[C@H]1C[C@@H]2CN(C(=O)NC2CCCCC2)C1)c1cnccn1 [CBK289076],111.696%
7,CCCc1c(C)nc2c(OC)cccc2c1SCCC(=O)O [CBK263890],86.2645%
8,N#Cc1ccc(COc2ccccc2)cc1 [CBK002738],121.293%
9,O=S(=O)(c1ccc(Cl)cc1)N1CCN(c2ccccc2)CC1 [CBK067987],117.338%
10,CCNC(=S)/N=C(\NCc1cccnc1)Nc1nc(C)cc(C)n1 [CBK267212],89.1603%
11,N#Cc1ccc(C2NC(=O)c3ccccc3O2)cc1 (stereo not drawn) [CBK288180],118.125%
12,Cn1c2ccccc2n2c(SCc3nc4ccc([N+](=O)[O-])cc4[nH]3)nnc12 [CBK266853],158.409%
13,CC(C)(C)C(=O)CN1CCC2(CC1)OCCc1c2[nH]c2ccc(F)cc12 [CBK040237],112.752%
14,Cc1cc2c(cc1C)C(O)CC1(CCN(C(=O)c3ccco3)CC1)O2 (stereo not drawn) [CBK282839],126.375%
15,NC(=O)CCN1CCC(Cc2ccccc2)CC1 [CBK138317],151.829%
16,NC(=O)CN1CCC2(CC1)CN(CC(N)=O)c1ccccc12 [CBK126789],82.999%
17,CNC(=O)c1cccc(NS(=O)(=O)c2sc3ccc(Cl)cc3c2C)c1 [CBK160383],125.599%
18,COc1cc(CNCc2cccs2)cc(Cl)c1OCC(N)=O [CBK270237C],139.351%
19,CCn1c(SCC(=O)Nc2ccc(C(C)=O)cc2)nnc1-c1cc(Br)ccc1O [CBK268515],162.966%
20,O=C(O)CSc1nnc(-c2ccco2)n1-c1ccccc1 [CBK131685],118.367%
21,CC1CCN(c2ccc(C(=O)CCCO)cc2)CC1 [CBK010358],116.098%
22,O=C(NCCCc1ccccc1Cl)c1ccc(=O)n(CC(=O)N2CCCCC2)c1 [CBK286078],113.4%
23,CCNC(=O)Nc1cc2cccnc2nc1-c1cc(F)cc(F)c1 [CBK070638],111.33%
24,CC(=O)Nc1ccc(S(=O)(=O)N2CCN(S(=O)(=O)c3ccccc3[N+](=O)[O-])CC2)cc1 [CBK264314],122.27%
25,Nc1ncc(-c2cc3ccccc3o2)nc1-c1ccc(C=O)cc1 [CBK064126],169.914%
26,O=[N+]([O-])c1cccc(NS(=O)(=O)c2ccc(Cl)c(Cl)c2)c1 [CBK044396],102.522%

row,SMILES,% of control remaining
1,CN(C)CCN1C(=O)C(O)=C(C(=O)c2ccc(S(=O)(=O)N3CCOCC3)cc2)C1c1ccc(F)cc1 (stereo not drawn) [CBK264683],100%
2,CCN1CCN(C(=O)CN(Cc2ccc(Cl)cc2)S(C)(=O)=O)CC1 [CBK269263],154.804%
3,Brc1ccc(-c2nc(NCCCN3CCOCC3)cc(-c3ccccc3)n2)cc1 [CBK261712],102.495%
4,Cc1ccc(-n2cnnn2)c(S(=O)(=O)N2CCOCC2)c1 [CBK268297],114.749%
5,CCOC(=O)C1(C2CCCCC2)CCN(C(=O)CC2NC(=O)NC2=O)CC1 (stereo not drawn) [CBK136938],107.537%
6,O=[N+]([O-])c1ccc(CN2CCN(c3nccnc3OCCN3CCOCC3)CC2)cc1 [CBK082892T],146.222%
7,O=C(O)CCCSCC(=O)Nc1ccccc1 [CBK276905],150.937%
8,O=C(CSc1nnc(SCc2cccc3ccccc23)s1)c1ccc(F)cc1 [CBK266218],111.644%
9,Cn1c2ccccc2c2cc(/C=C(/NC(=O)c3ccccc3)C(=O)Nc3cccc(O)c3)ccc21 [CBK261449],100%
10,CC1CN(Cc2c(C(F)(F)F)[nH]c3ncccc23)CC(C)O1 (stereo not drawn) [CBK285344],119.441%
11,CCOc1ccccc1NC(=O)NC(=O)C1CCN(CCCc2ccc3c(c2)OCO3)CC1 [CBK034924],171.078%
12,Nc1cccc2c1C(=O)N(c1ccccc1C(=O)O)C2=O [CBK287220],120.143%
13,COc1ccc(C(=O)c2c[nH]c3ccccc23)cc1 [CBK111451],133.64%
14,O=c1n(Cc2ccccc2F)nc2nnc(-c3ccccc3)c(-c3ccccc3)n12 [CBK286179],135.356%
15,CCN(CCO)c1ccc(Nc2cc(-c3ccsc3)ncn2)cc1 [CBK091000],123.825%
16,O=C(NCC1(N2CCOCC2)CCCCC1)c1ccccc1C(=O)c1ccc(F)cc1 [CBK297938],122.756%
17,CCn1c(C)nnc1SCC(=O)Nc1cc(C(F)(F)F)ccc1Cl [CBK304382],126.923%
18,O=C(O)c1cc(-n2c(S)nnc2-c2cnccn2)ccc1Cl [CBK269285],146.934%
19,Cc1nc(CN2CCC(Cc3ccccc3)CC2)cs1 [CBK126438],75.9846%
20,CCOC(=O)N1CCN(C(=O)COc2cccc3ccccc23)CC1 [CBK262992],116.784%
21,O=C(O)c1ccc(CSc2nnc(Cc3ccccc3)[nH]2)o1 [CBK269208],158.904%
22,Cc1ccc(C(=O)N2CCN(Cc3ccccc3)CC2)cn1 [CBK200170],120.286%
23,COc1ccc([C@@]23CC[C@@H](NC(=O)Nc4cc(C)c(C)cc4[N+](=O)[O-])C[C@@H]2N(C)CC3)cc1OC [CBK036478T],117.086%
24,CNC1CCCCCC1(O)c1ccccc1 (stereo not drawn) [CBK005073],99.208%
25,O=C(Cc1cccs1)N1CCC(c2nnc3n2CCCCC3)CC1 [CBK284606],152.593%
26,O=C(O)c1ccc(Nc2nc3ccccc3nc2NS(=O)(=O)c2ccc(Cl)cc2)cc1 [CBK296072],134.997%
